The campaign covered roughly 220,000 compounds. About 770 (0.35%) were called active. This list was built around the results that the source calls inconclusive (neither active nor inactive); the mix of calls is not that of the screen. No stated cut-off is given here; in the data, active means binding response below about 49% or above about 150%; inconclusive means no clear call, values can overlap the other calls; inactive means in between.
biological target: Guanine nucleotide-binding protein G(o) subunit alpha (Homo sapiens) (UniProt P09471); test: RGS7-Galphao binding modulators, primary screen, biochemical, multiplexed bead flow cytometry (AID 1439); settings: at 10 µM, actives lie on both sides;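 further: fluorescent Galphao held in activated GDP-AlF4 state binding bead-coupled RGS7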

Protein sequences, listed by entry. Tags and fused reporters are not part of them.
UniProt P09471, whole entry, looked up: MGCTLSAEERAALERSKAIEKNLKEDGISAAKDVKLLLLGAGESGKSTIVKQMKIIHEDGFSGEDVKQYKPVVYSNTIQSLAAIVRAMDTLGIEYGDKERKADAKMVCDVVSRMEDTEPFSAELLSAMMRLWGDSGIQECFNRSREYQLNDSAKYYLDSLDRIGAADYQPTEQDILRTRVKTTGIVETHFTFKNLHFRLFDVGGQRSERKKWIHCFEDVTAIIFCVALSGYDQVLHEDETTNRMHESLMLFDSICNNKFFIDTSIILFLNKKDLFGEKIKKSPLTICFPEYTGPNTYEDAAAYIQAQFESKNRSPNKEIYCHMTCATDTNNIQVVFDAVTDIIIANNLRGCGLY

Structure (SMILES)	binding response (% of control)
Cc1c(N=Cc2nc3ccccc3n2C)c(=O)n(-c2ccccc2)n1C	inactive: 102%
CC(=O)Nc1ccc(N2CCN(c3ccc(C(F)(F)F)cn3)CC2)nc1	inconclusive: 134%
O=C(NN1CCOCC1)c1cc(-c2ccncc2)nc2ccccc12	inconclusive: 94.7%
NS(=O)(=O)c1ccc(NC(=O)COC(=O)/C=C/c2ccc([N+](=O)[O-])cc2)cc1	inconclusive: 101%
CC(Nc1nc(-c2ccccc2O)nc2ccccc12)c1ccccc1 (configuration not stated)	inconclusive: 105%
O=C(CSc1nnnn1-c1ccc(O)cc1)c1cc2ccccc2o1	inconclusive: 108%
FC(F)(F)c1cccc(Cc2noc(CN3CCC(N4CCCCC4)CC3)n2)c1	inactive: 104%
C#CCNC(=O)C1=C[C@@H](c2ccc(C(F)(F)F)cc2)[C@H](CCCO)[C@@H](OCC)O1	inactive: 101%
CN(Cc1ccccc1)C(=O)c1nn2cccnc2c1Cl	inconclusive: 125%
O=C(CSc1nnc(-c2ccccn2)n1Cc1ccccc1)N1CCOCC1	inconclusive: 84.2%
O=C(NNS(=O)(=O)c1ccc(Br)cc1)C1CCCCC1	inconclusive: 105%
CCOCCCN(C(=O)Cn1nnc(-c2ccc(C)o2)n1)C(C(=O)NCC1CCCO1)c1ccc(F)cc1 (configuration not stated)	inconclusive: 83.2%
COc1cccc(N2CCN(C(=O)/C=C/c3ccco3)CC2)c1	inconclusive: 97.4%
COc1ccccc1C1CCN(C(=S)Nc2ccc(Br)cc2)CC1	inconclusive: 106%
CC(=O)Nc1nc(C)c(-c2csc(Nc3ccc(S(N)(=O)=O)cc3)n2)s1	inconclusive: 151%
CC(=O)Nc1cccc(CNCc2cccc(NC(C)=O)c2)c1	inconclusive: -3.98%
CCC(=O)NC(=S)Nc1ccc(NC(=O)c2cccnc2)cc1	inconclusive: 4.29%
CCOC(=O)c1nn(-c2ccccc2C)c2nc(-c3ccc(Cl)cc3)c(C#N)c(=O)n12	inactive: 85.5%
CCn1c(SCC(=O)Nc2ccc(OC)c(OC)c2)nnc1-c1ccco1	inconclusive: 237%
COc1ccc(N=Cc2nc(-c3ccccc3)oc2OC(C)=O)cc1	inconclusive: 91.5%
Nc1nc(-c2ccccc2)nn1S(=O)(=O)c1ccccc1	inconclusive: 65.1%
O=C1C2C(c3ccccc3)CC=CC2[C@H](c2ccoc2)N1Cc1ccccc1 (some centres not stated)	inconclusive: 86.5%
CN1CCN(C(=O)c2cn(-c3ccccc3)nc2-c2cccs2)CC1	inconclusive: 119%

Structure (SMILES)	binding response (% of control)
Cc1ccccc1NC(=O)c1sc(NC(=O)COc2ccccc2)c(C#N)c1C	inactive: 106%
Cc1[nH]c(=O)[nH]c(=O)c1/C=N/NC(=O)CCNC(=O)OC(C)(C)C	inconclusive: 134%
CCCn1c(-c2ccc[nH]c2=O)nc2cc(C)c(C)cc21	inactive: 94.4%
N/C(=N\NC(=O)Nc1ccccc1)c1ccccn1	inconclusive: 72.2%
O=C(Nc1cccc(NC(=O)c2cccs2)c1)c1ccc([N+](=O)[O-])o1	inconclusive: 119%
NNC(=O)CCn1nnc2ccccc21	inconclusive: 18.3%
COC(=O)c1ccc(CN2[C@H](C(=O)OC)C[C@@]3(O)[C@H](O)[C@H](O)[C@H](O)C[C@@H]23)cc1	inconclusive: 108%
CC1(C)Cc2c(sc(NC(=O)c3ccccc3Cl)c2C(=O)O)CO1	inactive: 97.2%
Cc1c(NS(=O)(=O)N2CCCC2)c(=O)n(-c2ccccc2)n1C	inactive: 102%
COc1ccc2cc(C#N)c(N3CCN(C(=O)c4ccccc4C)CC3)nc2c1	inconclusive: 76.8%
Cc1cc(C(=O)NNc2ccc(F)cc2F)no1	inconclusive: 96%
O=C1CSC(=Nc2ccc(Cl)cc2)N1Cc1cccnc1	inconclusive: 196%
O=C(N/N=C/c1ccc2nccnc2c1)c1ccncc1	inconclusive: 120%
N/C(=N\O)c1ccncc1	inconclusive: 118%
CC(C)c1ccccc1NS(=O)(=O)N(C)C	inactive: 111%
COc1cccc(CNC(=O)CN(C)S(=O)(=O)c2cccc3cccnc23)c1	inconclusive: 94%
CNC(=O)COC(=O)CCC(=O)c1cccs1	inconclusive: 96.9%
c1ccc2cc(CNCc3cccc4ccccc34)ccc2c1	inconclusive: -195%
CCN(CC)S(=O)(=O)c1cc(C(=O)NCCN2CCOCC2)ccc1Cl	inconclusive: 97.5%
COc1ccc([N+](=O)[O-])cc1NC(=O)Cc1noc2ccc(C)cc12	inconclusive: 108%
CCCN(CCC)CCCNC(=O)C1c2cc(OC)c(OC)cc2C(=O)N(C)C1c1cccs1 (configuration not stated)	inactive: 102%
COc1ccccc1OCC(=O)Nc1ccc(C(N)=O)cc1	inactive: 97.9%
Cc1ccc(OCC(=O)N(Cc2ccccc2)c2ccccn2)cc1	inactive: 97.8%

Structure (SMILES)	binding response (% of control)
Cc1ccc([N+](=O)[O-])cc1NCC(=O)NN	inconclusive: 105%
CCOC(=O)C1CCN(c2c(NCCN(CC)c3ccccc3)c(=O)c2=O)CC1	inconclusive: 128%
CCOc1cc(N2CCOCC2)c(OCC)cc1NC(=O)COc1ccccc1[N+](=O)[O-]	inconclusive: 107%
CCN(CC)C(=O)c1cc(Cl)ccc1NC(=O)c1ccco1	inconclusive: 91.1%
CC1CC2OC(=O)C3(C)CCCC(C)(C23)C1(O)CCc1ccoc1 (configuration not stated)	inconclusive: 117%
O=C(C1CCC(CNc2c(N3CCCC3)c(=O)c2=O)CC1)N1CCc2ccccc21 (configuration not stated)	inconclusive: 115%
COc1ccccc1CC(=O)N1CCCC(CCC(=O)NCc2ccccc2F)C1 (configuration not stated)	inconclusive: 96.3%
NC(=O)C1(C(N)=O)OC1c1ccccc1 (configuration not stated)	inconclusive: 115%
CC(=O)Nc1ccc(S(=O)(=O)C(C#N)c2nc3ccccc3nc2NCCO)cc1 (configuration not stated)	inconclusive: 143%
COCCCNC(=O)COC(=O)c1ccc(-c2nc3ccccc3s2)s1	inconclusive: 99%
O=C(CN1CCOCC1)Nc1ccccc1Sc1ccc(Cl)cc1	inactive: 95.2%
O=c1[nH]c(N2CCCCC2)nc2ncn(Cc3ccccc3)c12	inconclusive: 282%
Cc1ccc(C(=O)NCCc2ccccn2)cc1S(=O)(=O)N1CCOCC1	inconclusive: 109%
CCOC(=O)c1cn(Cc2ccc(Cl)cc2Cl)c2cc(C)nn2c1=O	inconclusive: 117%
O=c1[nH]nc(-c2ccccc2)c2ccccc12	inconclusive: 96.9%
O=C(NCc1ccc(Cl)cc1)C(=O)NCC1OCCN1C(=O)c1ccc(Cl)cc1 (configuration not stated)	inactive: 102%
CC(=O)Nc1ccc(S(=O)(=O)Nc2nc3ccccc3nc2-n2ccc(=NC(=O)c3ccccc3)cc2)cc1	inconclusive: 88%
C/C(CCc1ccc2c(c1)OCO2)=N\NC(=O)c1ccccc1Br	inactive: 98.7%
CNc1nc(Oc2ccccc2C(=O)OC)nc(SC)n1	inactive: 106%
CC(=O)O/N=C(\N)Cc1ccc(-c2csnn2)cc1	inconclusive: -418%
O=C(/C=C/c1ccccc1)OCCCN=C1NS(=O)(=O)c2ccccc21	inactive: 97.1%
c1ccc(-c2noc(CC3CCCCC3)n2)nc1	inactive: 101%
CSC1=NC(C(Cl)(Cl)Cl)N=C(c2ccccc2)N1 (configuration not stated)	inconclusive: 96.5%

Structure (SMILES)	binding response (% of control)
CCc1nc2ccccc2nc1N1CCN(S(=O)(=O)c2ccccc2)CC1	inconclusive: -38.1%
CSc1nc2ccccc2nc1N(C)S(=O)(=O)c1ccc(C)cc1	inconclusive: -38%
CCCCOC(=O)N1CCOCCOCCOCCOCC1	inconclusive: 140%
CCOc1ccc(CC(=O)NNC(=S)NC2CCCCC2)cc1OCC	inactive: 100%
COc1ccc([N+](=O)[O-])cc1NC(=O)N(C)Cc1ccco1	inconclusive: 99.7%
O=C(NCc1nnc(SCC(=O)N2CCOCC2)o1)c1ccccc1F	inactive: 102%
COc1cccc(CN2CCN(Cc3cc4ccccc4[nH]3)CC2CCO)c1 (configuration not stated)	inconclusive: 163%
O=C(C[n+]1cc(-c2ccc(Cl)cc2)n2c1CCC2)Nc1nc(-c2ccc(F)cc2)cs1	inconclusive: 95.6%
CCOC(=O)CSc1cc(C)c(C#N)c2nc3ccccc3n12	inconclusive: 111%
C#CCNC(=O)C1=C[C@@H](C2CC2)[C@H](CCCO)[C@@H](OCC)O1	active: -5.52%
CC[C@@H](C)C(C(=O)N1CCN(C(=O)OC(C)(C)C)CC1)n1cc(-c2cn([C@@H](C)C(=O)N3CCN(C(=O)OC(C)(C)C)CC3)nn2)nn1 (some centres not stated)	inconclusive: 95%
COc1ccc(CCn2c(NN=C3CCCCC3)nc3c2c(=O)[nH]c(=O)n3C)cc1	inconclusive: 75.7%
CC(=C/c1ccco1)/C=N/NC(=O)c1nnn(-c2nonc2N)c1CN(C)C	inactive: 101%
COC(=O)COc1ccc(NC(=O)c2ccco2)cc1	inconclusive: 107%
Brc1ccccc1/C=N/Nc1ccccn1	inconclusive: 115%
COC(=O)CSc1nc2sc3c(c2c(=O)[nH]1)CCC3	inconclusive: 112%
COc1ccc(NC(=O)Nc2ccc(C)cc2Br)c(OC)c1	inconclusive: 102%
Cc1ccc(S(=O)(=O)c2cc3ccccc3nc2N)cc1	inactive: 102%
COc1ccccc1/C=C/C(=O)NCc1cccnc1	inactive: 94.4%
Cc1ccccc1NCN1C(=O)C2CCC(C)(C1=O)C2(C)C (configuration not stated)	inconclusive: 96.4%
C=CCNC(=O)Nc1ccc(F)c(Cl)c1	inconclusive: 121%
COc1c(Cl)cc(Br)c(OC)c1C(=O)NC(=O)Nc1nc(C)cc(C)n1	inconclusive: 46.9%
CCCC(C(=O)c1ccccc1)n1cncn1 (configuration not stated)	inactive: 77.7%

— PubChem BioAssay AID1439 (NMMLSC, 2008)
